No constants are given. Whether binding was seen depends on the method and setting. Binding seen in cells or lysates may run through a third protein. Some results given as binding are weak or reduced against the parent protein; the word gives no strength.
Columns and labels:
[1] = target: β-TrCP (Beta-transducin repeat containing E3 ubiquitin protein ligase) (human (endogenous in CNE2 and 5-8F)) (UniProt Q9Y297); experiment: co-IP; CNE2 and 5-8F cells transfected with Flag tagged c-Myc; antibody on protein A/G magnetic beads, lysate overnight at 4 °C, western blotting
[2] = target: c-Myc (human (endogenous in CNE2 and 5-8F)) (UniProt P01106); experiment: co-IP; endogenous proteins of CNE2 and 5-8F lysates; IP with anti-β-TrCP, anti-phosphorylated (T58 + S62) c-Myc or anti-c-Myc antibody on protein A/G magnetic beads, overnight at 4 °C, western blotting; also after overexpression or knockdown of circPVT1
[3] = target: β-TrCP (Beta-transducin repeat containing E3 ubiquitin protein ligase) (human (endogenous in CNE2 and 5-8F)) (UniProt Q9Y297); experiment: as above

Chains of the proteins cited; added tags and fusions are not shown.
UniProt Q9Y297: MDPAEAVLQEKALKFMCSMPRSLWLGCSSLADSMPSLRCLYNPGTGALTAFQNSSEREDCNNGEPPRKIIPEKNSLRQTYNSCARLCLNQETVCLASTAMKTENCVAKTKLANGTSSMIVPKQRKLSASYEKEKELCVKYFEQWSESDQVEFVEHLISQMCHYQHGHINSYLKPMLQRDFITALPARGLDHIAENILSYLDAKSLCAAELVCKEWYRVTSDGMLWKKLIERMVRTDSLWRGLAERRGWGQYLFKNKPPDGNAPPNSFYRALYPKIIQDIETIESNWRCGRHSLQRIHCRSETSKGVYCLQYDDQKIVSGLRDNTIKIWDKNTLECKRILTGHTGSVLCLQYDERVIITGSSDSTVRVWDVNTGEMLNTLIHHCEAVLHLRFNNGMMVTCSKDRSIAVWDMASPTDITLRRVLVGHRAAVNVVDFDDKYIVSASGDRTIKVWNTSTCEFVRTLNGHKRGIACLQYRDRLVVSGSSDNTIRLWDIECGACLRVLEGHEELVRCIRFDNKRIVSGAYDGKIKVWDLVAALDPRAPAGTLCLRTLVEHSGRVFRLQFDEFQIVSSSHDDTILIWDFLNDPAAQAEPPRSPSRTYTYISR
UniProt P01106: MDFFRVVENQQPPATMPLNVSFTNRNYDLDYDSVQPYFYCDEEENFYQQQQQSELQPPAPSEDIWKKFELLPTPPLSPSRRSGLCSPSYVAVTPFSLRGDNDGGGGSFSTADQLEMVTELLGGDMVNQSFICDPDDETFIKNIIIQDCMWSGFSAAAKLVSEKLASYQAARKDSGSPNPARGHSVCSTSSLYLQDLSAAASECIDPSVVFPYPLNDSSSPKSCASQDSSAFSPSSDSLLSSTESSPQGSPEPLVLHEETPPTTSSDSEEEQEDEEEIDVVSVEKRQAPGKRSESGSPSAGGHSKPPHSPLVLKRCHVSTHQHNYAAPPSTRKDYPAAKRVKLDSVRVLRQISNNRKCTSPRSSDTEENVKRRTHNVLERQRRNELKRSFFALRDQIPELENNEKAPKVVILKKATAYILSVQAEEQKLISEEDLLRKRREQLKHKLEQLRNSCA
UniProt Q07955: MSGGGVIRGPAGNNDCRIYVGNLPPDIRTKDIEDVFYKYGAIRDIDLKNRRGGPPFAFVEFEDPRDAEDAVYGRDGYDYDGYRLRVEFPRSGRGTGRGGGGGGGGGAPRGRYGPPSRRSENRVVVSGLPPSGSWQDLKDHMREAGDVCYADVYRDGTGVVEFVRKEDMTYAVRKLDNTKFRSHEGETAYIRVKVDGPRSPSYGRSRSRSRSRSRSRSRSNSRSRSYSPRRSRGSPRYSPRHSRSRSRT

For “Flag tagged c-Myc (from UniProt P01106 1-454)”, the binding [1] was “binds”.
With “SRSF1 (Serine and arginine rich splicing factor 1) (from UniProt Q07955 1-248)” the binding [2] was “binds”.
In the case of c-Myc (from UniProt P01106 1-454), the binding [3] is reported as “binds”.
With “phosphorylated c-Myc (T58 + S62) (from UniProt P01106 1-454)” the binding [3] was “binds”.

From article PMC9533486
